Laboratory results published in patent EP1988165A1.
These are yes or no findings as the source states them, for the method shown. For some assays here: Binding seen in cells or lysates may run through a third protein. Some entries that bind do so weakly or less than the wild type.

By UniProt entry, the sequences of proteins in these tests, tags left out. Where a name states a change or a piece, a line headed by the entry shows the natural chain unless it says otherwise. Residues count along the entry.
UniProt Q8BZQ7, residues 15-837: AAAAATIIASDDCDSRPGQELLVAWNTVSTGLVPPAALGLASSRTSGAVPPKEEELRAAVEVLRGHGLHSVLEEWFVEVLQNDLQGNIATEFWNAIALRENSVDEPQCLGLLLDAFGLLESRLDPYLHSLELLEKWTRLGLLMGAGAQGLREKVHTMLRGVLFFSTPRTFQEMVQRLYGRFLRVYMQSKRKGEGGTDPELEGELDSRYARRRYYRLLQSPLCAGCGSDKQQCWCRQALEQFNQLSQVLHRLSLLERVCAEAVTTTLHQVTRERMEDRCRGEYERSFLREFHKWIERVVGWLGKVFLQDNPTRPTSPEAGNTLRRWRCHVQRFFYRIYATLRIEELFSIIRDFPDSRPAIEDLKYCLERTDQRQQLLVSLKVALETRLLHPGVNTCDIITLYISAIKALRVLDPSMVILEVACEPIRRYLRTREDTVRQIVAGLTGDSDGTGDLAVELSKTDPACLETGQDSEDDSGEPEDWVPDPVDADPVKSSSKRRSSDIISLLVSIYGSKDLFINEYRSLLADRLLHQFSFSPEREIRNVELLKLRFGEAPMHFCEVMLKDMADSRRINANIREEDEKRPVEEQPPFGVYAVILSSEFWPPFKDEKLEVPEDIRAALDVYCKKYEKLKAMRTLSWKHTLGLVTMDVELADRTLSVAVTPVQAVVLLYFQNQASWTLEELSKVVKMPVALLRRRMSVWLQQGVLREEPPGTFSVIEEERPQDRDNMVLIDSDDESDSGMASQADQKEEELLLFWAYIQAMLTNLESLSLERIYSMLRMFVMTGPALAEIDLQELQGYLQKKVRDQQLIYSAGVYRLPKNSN
UniProt Q93034: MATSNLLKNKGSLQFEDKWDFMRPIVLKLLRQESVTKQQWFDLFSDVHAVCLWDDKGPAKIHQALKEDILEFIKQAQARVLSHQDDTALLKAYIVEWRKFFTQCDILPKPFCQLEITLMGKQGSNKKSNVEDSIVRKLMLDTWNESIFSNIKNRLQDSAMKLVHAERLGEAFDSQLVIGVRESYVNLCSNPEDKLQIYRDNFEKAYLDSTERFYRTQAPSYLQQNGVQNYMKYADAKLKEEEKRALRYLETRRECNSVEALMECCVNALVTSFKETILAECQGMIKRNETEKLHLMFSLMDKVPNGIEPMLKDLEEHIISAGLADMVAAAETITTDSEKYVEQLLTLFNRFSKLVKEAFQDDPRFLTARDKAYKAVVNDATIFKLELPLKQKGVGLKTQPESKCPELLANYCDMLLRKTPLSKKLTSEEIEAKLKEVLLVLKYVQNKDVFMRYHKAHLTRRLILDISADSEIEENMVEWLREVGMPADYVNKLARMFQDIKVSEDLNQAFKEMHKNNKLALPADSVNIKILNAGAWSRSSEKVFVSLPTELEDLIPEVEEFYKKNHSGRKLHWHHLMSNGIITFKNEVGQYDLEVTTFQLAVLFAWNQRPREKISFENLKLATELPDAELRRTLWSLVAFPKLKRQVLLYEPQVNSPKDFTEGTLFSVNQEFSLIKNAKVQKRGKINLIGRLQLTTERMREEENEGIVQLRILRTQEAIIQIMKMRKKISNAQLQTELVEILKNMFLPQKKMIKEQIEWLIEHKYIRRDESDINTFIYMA
UniProt Q13617: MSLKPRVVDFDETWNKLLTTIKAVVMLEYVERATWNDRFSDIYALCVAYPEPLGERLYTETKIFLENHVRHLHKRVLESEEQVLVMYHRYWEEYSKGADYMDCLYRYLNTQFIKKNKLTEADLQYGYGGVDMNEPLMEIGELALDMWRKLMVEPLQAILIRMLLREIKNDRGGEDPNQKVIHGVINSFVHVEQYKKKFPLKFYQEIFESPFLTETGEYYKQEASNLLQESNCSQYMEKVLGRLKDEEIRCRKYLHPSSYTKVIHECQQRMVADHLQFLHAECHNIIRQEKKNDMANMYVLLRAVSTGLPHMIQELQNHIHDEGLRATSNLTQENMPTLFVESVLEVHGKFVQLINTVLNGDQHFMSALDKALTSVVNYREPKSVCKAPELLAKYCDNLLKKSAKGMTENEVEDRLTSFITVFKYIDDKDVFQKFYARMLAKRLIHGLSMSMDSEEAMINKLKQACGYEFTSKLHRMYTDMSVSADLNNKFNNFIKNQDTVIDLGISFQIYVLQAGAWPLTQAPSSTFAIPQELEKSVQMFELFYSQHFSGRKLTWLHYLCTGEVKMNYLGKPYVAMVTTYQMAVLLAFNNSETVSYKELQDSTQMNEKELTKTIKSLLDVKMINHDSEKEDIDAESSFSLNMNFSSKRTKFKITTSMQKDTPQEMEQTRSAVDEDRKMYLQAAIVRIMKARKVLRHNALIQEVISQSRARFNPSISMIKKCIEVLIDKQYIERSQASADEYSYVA
UniProt Q3TCH7: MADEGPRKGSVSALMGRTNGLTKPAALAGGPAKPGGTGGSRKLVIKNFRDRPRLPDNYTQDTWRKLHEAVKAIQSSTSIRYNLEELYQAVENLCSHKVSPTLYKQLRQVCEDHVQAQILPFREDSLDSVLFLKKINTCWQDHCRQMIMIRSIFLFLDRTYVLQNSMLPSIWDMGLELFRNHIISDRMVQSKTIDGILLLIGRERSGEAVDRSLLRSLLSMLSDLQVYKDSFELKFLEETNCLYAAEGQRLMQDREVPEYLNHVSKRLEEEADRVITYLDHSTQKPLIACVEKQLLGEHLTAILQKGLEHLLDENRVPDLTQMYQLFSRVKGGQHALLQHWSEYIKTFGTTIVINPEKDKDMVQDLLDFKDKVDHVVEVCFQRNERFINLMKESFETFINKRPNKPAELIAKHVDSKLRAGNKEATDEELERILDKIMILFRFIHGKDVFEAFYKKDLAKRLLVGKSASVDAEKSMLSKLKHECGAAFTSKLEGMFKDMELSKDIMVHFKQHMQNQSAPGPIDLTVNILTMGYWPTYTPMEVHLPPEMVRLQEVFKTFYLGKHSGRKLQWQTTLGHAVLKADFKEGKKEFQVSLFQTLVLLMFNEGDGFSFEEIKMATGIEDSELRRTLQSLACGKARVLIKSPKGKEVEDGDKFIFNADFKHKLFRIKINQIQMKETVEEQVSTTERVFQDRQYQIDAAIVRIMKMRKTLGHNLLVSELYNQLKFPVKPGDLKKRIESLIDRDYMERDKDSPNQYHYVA
UniProt Q13616: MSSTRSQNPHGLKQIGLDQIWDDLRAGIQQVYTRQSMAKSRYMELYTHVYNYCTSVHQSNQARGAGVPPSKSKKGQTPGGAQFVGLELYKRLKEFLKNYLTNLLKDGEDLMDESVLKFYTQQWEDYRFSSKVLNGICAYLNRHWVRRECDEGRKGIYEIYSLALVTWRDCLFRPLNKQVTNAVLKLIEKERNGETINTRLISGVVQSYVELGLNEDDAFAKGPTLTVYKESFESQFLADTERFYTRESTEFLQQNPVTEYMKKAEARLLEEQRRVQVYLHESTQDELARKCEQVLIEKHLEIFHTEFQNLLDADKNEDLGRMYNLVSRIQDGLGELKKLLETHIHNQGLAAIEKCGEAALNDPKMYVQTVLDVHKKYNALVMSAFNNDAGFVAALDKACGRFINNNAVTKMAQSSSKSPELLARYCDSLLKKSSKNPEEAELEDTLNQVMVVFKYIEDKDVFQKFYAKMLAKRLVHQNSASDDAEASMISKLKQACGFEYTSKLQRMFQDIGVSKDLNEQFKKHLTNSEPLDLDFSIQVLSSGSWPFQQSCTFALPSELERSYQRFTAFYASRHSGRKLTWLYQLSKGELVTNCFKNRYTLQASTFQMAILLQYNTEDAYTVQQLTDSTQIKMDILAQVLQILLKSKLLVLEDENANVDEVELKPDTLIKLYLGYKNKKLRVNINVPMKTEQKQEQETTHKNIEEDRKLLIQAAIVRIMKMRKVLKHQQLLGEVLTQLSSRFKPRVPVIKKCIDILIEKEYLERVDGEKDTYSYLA
UniProt P04386: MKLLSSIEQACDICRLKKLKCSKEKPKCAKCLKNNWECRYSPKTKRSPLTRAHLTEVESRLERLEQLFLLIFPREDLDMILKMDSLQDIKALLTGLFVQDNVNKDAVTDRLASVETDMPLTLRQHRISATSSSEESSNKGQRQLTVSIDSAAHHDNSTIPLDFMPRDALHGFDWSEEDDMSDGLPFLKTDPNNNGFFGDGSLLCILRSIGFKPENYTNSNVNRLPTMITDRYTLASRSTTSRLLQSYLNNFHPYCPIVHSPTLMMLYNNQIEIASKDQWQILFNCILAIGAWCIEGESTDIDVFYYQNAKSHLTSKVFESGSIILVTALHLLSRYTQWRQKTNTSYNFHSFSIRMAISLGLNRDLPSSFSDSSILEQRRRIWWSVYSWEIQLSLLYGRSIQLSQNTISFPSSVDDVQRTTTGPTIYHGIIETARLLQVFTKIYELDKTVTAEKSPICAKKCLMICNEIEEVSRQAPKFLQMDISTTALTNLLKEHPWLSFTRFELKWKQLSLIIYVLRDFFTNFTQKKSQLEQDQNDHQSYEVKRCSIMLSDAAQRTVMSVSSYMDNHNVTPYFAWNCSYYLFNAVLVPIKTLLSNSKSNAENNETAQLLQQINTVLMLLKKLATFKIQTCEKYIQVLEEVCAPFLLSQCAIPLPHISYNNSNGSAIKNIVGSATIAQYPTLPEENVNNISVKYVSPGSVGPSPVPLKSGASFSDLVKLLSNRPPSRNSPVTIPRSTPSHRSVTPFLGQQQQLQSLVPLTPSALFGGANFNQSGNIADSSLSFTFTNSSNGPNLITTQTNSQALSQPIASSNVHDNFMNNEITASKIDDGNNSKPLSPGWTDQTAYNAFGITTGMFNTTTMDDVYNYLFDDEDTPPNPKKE
UniProt Q9UBF6: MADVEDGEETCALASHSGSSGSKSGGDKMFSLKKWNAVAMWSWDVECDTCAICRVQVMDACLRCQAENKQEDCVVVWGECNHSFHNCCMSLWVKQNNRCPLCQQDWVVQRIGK
UniProt Q9NYG5: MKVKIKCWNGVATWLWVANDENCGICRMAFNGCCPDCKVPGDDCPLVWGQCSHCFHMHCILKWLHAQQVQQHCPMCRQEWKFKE

Assays:
[1] = target: myc-epitope tagged APC2 (mouse) (UniProt Q8BZQ7); experiment: reciprocal co-immunoprecipitation from transfected HeLa cells
[2] = target: myc-epitope tagged cullin 5 (UniProt Q93034); experiment: co-immunoprecipitation with anti-HA from [35S]-methionine labeled transfected cells (FIG. 4D)
[3] = target: myc-epitope tagged cullin 5 (UniProt Q93034); experiment: co-immunoprecipitation from [35S]-methionine labeled transfected cells (FIG. 4D)
[4] = target: myc-epitope tagged cullin 2 (UniProt Q13617); experiment: co-immunoprecipitation from [35S]-methionine labeled transfected cells (FIG. 4C)
[5] = target: myc-epitope tagged mouse CUL4A (mouse) (UniProt Q3TCH7); experiment: as above
[6] = target: human CUL1, untagged (transfected, in vitro translated or endogenous) (human) (UniProt Q13616); experiment: as above
[7] = target: myc-epitope tagged cullin 5 (UniProt Q93034); experiment: as above
[8] = target: myc-epitope tagged cullin 2 (UniProt Q13617); experiment: co-immunoprecipitation with anti-HA from [35S]-methionine labeled transfected cells (FIG. 4C)
[9] = target: myc-epitope tagged mouse CUL4A (mouse) (UniProt Q3TCH7); experiment: as above
[10] = target: human CUL1, untagged (transfected, in vitro translated or endogenous) (human) (UniProt Q13616); experiment: as above
[11] = target: myc-epitope tagged cullin 5 (UniProt Q93034); experiment: as above
[12] = target: cullin 5 fused in frame with the DNA-binding domain of Gal4 (pGBT8) (yeast) (UniProt P04386+Q93034); experiment: yeast two-hybrid (FIG. 4B)
[13] = target: mouse APC2 fused to the Gal4 DNA binding domain (yeast; mouse) (UniProt P04386+Q8BZQ7); experiment: yeast two-hybrid, -LWH medium with 5 mM 3-AT (FIG. 4E)
[14] = target: cullin 2 fused in frame with the DNA-binding domain of Gal4 (pGBT8) (yeast) (UniProt P04386+Q13617); experiment: yeast two-hybrid (FIG. 4A)
[15] = target: human CUL1 fused in frame with the DNA-binding domain of Gal4 (pGBT8) (yeast; human) (UniProt P04386+Q13616); experiment: yeast two-hybrid (FIG. 4A)
[16] = target: full-length mouse cullin 4A fused in frame with the DNA-binding domain of Gal4 (yeast; mouse) (UniProt P04386+Q3TCH7); experiment: yeast two-hybrid (FIG. 4A)
[17] = target: HA tagged human ROC2 (human) (UniProt Q9UBF6); experiment: immunoprecipitation with anti-myc from [35S]-methionine labeled transfected cells (FIG. 4C)

Measured: binding

HA tagged human APC11 (from UniProt Q9NYG5 1-84)
binds: [1] | [2] | [3]

HA tagged human ROC2 (from UniProt Q9UBF6 2-113)
binds: [4] | [5] | [6] | [7] | [8] | [9] | [10] | [11]

full length human APC11 fused in-frame with the yeast Gal4 DNA activation domain (from UniProt Q9NYG5 1-84)
binds: [12] | [13]

full length human ROC2 fused in-frame with the yeast Gal4 DNA activation domain (from UniProt Q9UBF6 29-113)
binds: [14] | [15] | [16]

myc-epitope tagged cullin 5 (from UniProt Q93034 1-780)
binds: [17]
